Record: PubChem BioAssay AID1259254 (NCATS, 2017)

Aim: 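Gene knock-downs that lead to re-replication, shown by excess G2 DNA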 (primary screen)
System: human HCT116 colorectal cancer cells
Reagent: single siRNA against human genes
Duration: 3 days
Measurement: 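Nuclei stained with Hoechst and imaged; cell-cycle phase assigned by DNA content; G2 share scaled per plate, non-targeting siRNA 0%, GMNN siRNA 100%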
Reading the numbers: G2 robust z-score and G2 cells, % of GMNN control: higher = more G2 cells, more excess DNA replication; raw share of cells in G2: higher = larger share of cells with G2 DNA content
Call rule: 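Active siRNAs have a G2 robust z of 5 or more median absolute deviations over the median, which in these data means about 38% or higher of GMNN control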
This is an unselected part of about 59,000 reagents. Of all reagents, about 1,550 (2.6%) got an active call. 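G2 share is only a proxy for re-replication; each gene was hit by three separate siRNAs, and active genes were retested.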 The raw values are shown without normalisation. Reagents against one gene are numbered here. Not given: the amount of reagent.

| Gene | reagent | G2 robust z-score | G2 cells, % of GMNN control | raw share of cells in G2 (%) | call |
| --- | --- | --- | --- | --- | --- |
| GPRC6A (G protein-coupled receptor class C group 6 member A) | 1 | -0.527 | -0.741 | 5.58 | inactive |
| GPRC6A (G protein-coupled receptor class C group 6 member A) | 2 | -0.517 | -0.67 | 4.28 | inactive |
| GPRC6A (G protein-coupled receptor class C group 6 member A) | 3 | -0.251 | 1.2 | 3.64 | inactive |
| EPS15 (epidermal growth factor receptor pathway substrate 15) | 1 | 2.36 | 19.6 | 12.3 | inactive |
| EPS15 (epidermal growth factor receptor pathway substrate 15) | 2 | -0.55 | -0.905 | 4.92 | inactive |
| EPS15 (epidermal growth factor receptor pathway substrate 15) | 3 | -0.369 | 0.37 | 3.79 | inactive |
| OR5B21 (olfactory receptor family 5 subfamily B member 21) | 1 | 0.258 | 4.79 | 5.31 | inactive |
| OR5B21 (olfactory receptor family 5 subfamily B member 21) | 2 | 0.153 | 4.04 | 4.51 | inactive |
| OR5B21 (olfactory receptor family 5 subfamily B member 21) | 3 | 4.08 | 31.7 | 13.3 | inactive |
| WARS2 (tryptophanyl tRNA synthetase 2, mitochondrial) | 1 | -0.0703 | 2.47 | 7.45 | inactive |
| WARS2 (tryptophanyl tRNA synthetase 2, mitochondrial) | 2 | -0.266 | 1.09 | 4.19 | inactive |
| WARS2 (tryptophanyl tRNA synthetase 2, mitochondrial) | 3 | 1.95 | 16.7 | 13 | inactive |
| CYP2C18 (cytochrome P450 family 2 subfamily C member 18) | 1 | -1.15 | -5.14 | 3.13 | inactive |
| CYP2C18 (cytochrome P450 family 2 subfamily C member 18) | 2 | -0.0951 | 2.3 | 5.83 | inactive |
| CYP2C18 (cytochrome P450 family 2 subfamily C member 18) | 3 | 1.71 | 15 | 9.26 | inactive |
| NR2E3 (nuclear receptor subfamily 2 group E member 3) | 1 | 1.91 | 16.4 | 11.2 | inactive |
| NR2E3 (nuclear receptor subfamily 2 group E member 3) | 2 | -0.434 | -0.0858 | 4.52 | inactive |
| NR2E3 (nuclear receptor subfamily 2 group E member 3) | 3 | -1.28 | -6 | 1.97 | inactive |
| TRIM3 (tripartite motif containing 3) | 1 | -1.01 | -4.11 | 4.86 | inactive |
| TRIM3 (tripartite motif containing 3) | 2 | 1.53 | 13.7 | 8.28 | inactive |
| TRIM3 (tripartite motif containing 3) | 3 | -0.691 | -1.89 | 4.87 | inactive |
| WDR93 (WD repeat domain 93) | 1 | 6.77 | 50.6 | 24.3 | active |
| WDR93 (WD repeat domain 93) | 2 | -0.0812 | 2.4 | 5.6 | inactive |
| WDR93 (WD repeat domain 93) | 3 | 3.11 | 24.8 | 10.9 | inactive |
| HMGB2 (high mobility group box 2) | 1 | 1.14 | 11 | 10.5 | inactive |
| HMGB2 (high mobility group box 2) | 2 | 1.66 | 14.6 | 9.45 | inactive |
| HMGB2 (high mobility group box 2) | 3 | 2.03 | 17.3 | 10.3 | inactive |
| TBC1D26 (TBC1 domain family member 26) | 1 | 0.469 | 6.27 | 6.14 | inactive |
| TBC1D26 (TBC1 domain family member 26) | 2 | -0.0671 | 2.5 | 4.35 | inactive |
| TBC1D26 (TBC1 domain family member 26) | 3 | -0.397 | 0.173 | 4.26 | inactive |
| KPNA3 (karyopherin subunit alpha 3) | 1 | -0.0496 | 2.62 | 6 | inactive |
| KPNA3 (karyopherin subunit alpha 3) | 2 | 2.39 | 19.8 | 13.2 | inactive |
| KPNA3 (karyopherin subunit alpha 3) | 3 | -0.385 | 0.258 | 4.3 | inactive |
| LTO1 (LTO1 maturation factor of ABCE1) | 1 | -0.318 | 0.732 | 3.84 | inactive |
| LTO1 (LTO1 maturation factor of ABCE1) | 2 | -0.263 | 1.11 | 3.51 | inactive |
| LTO1 (LTO1 maturation factor of ABCE1) | 3 | 3.64 | 28.6 | 12.3 | inactive |
| DUOXA1 (dual oxidase maturation factor 1) | 1 | 2.76 | 22.4 | 13.6 | inactive |
| DUOXA1 (dual oxidase maturation factor 1) | 2 | 1.41 | 12.9 | 7.03 | inactive |
| DUOXA1 (dual oxidase maturation factor 1) | 3 | -0.512 | -0.637 | 2.72 | inactive |
| CXCL17 (C-X-C motif chemokine ligand 17) | 1 | 0.368 | 5.56 | 5.67 | inactive |
| CXCL17 (C-X-C motif chemokine ligand 17) | 2 | 1.03 | 10.2 | 6.98 | inactive |
| CXCL17 (C-X-C motif chemokine ligand 17) | 3 | -0.999 | -4.06 | 2.03 | inactive |
| WNT1 (Wnt family member 1) | 1 | 2.22 | 18.6 | 10.6 | inactive |
| WNT1 (Wnt family member 1) | 2 | -1.02 | -4.22 | 2.69 | inactive |
| WNT1 (Wnt family member 1) | 3 | 1.96 | 16.8 | 12.7 | inactive |
| E2F6 (E2F transcription factor 6) | 1 | 1.65 | 14.6 | 8.85 | inactive |
| E2F6 (E2F transcription factor 6) | 2 | -0.819 | -2.79 | 4.22 | inactive |
| E2F6 (E2F transcription factor 6) | 3 | -1.26 | -5.9 | 3.02 | inactive |
| DHX37 (DEAH-box helicase 37) | 1 | 6.73 | 50.3 | 26.5 | active |
| DHX37 (DEAH-box helicase 37) | 2 | 4.33 | 33.5 | 16.2 | inactive |
| DHX37 (DEAH-box helicase 37) | 3 | 0.649 | 7.54 | 6.96 | inactive |
| NLGN4Y (neuroligin 4 Y-linked) | 1 | -0.557 | -0.954 | 5.99 | inactive |
| NLGN4Y (neuroligin 4 Y-linked) | 2 | 1.21 | 11.5 | 7.99 | inactive |
| NLGN4Y (neuroligin 4 Y-linked) | 3 | 0.122 | 3.83 | 5.18 | inactive |
| RIPK4 (receptor interacting serine/threonine kinase 4) | 1 | 1.05 | 10.3 | 8.8 | inactive |
| RIPK4 (receptor interacting serine/threonine kinase 4) | 2 | 5.42 | 41.1 | 20.1 | active |
| RIPK4 (receptor interacting serine/threonine kinase 4) | 3 | -0.0036 | 2.94 | 4.62 | inactive |
| TNFRSF13C (TNF receptor superfamily member 13C) | 1 | 0.055 | 3.35 | 2.8 | inactive |
| TNFRSF13C (TNF receptor superfamily member 13C) | 2 | 1.48 | 13.4 | 9.45 | inactive |
| TNFRSF13C (TNF receptor superfamily member 13C) | 3 | 1.38 | 12.7 | 7.11 | inactive |
| GNPDA1 (glucosamine-6-phosphate deaminase 1) | 1 | 1.06 | 10.5 | 9.15 | inactive |
| GNPDA1 (glucosamine-6-phosphate deaminase 1) | 2 | 5.5 | 41.6 | 21.7 | active |
| GNPDA1 (glucosamine-6-phosphate deaminase 1) | 3 | 0.342 | 5.38 | 5.03 | inactive |
| CLSTN2 (calsyntenin 2) | 1 | 0.445 | 6.1 | 6.44 | inactive |
| CLSTN2 (calsyntenin 2) | 2 | 0.892 | 9.24 | 7.62 | inactive |
| CLSTN2 (calsyntenin 2) | 3 | -0.417 | 0.037 | 5.66 | inactive |
| KTN1 (kinectin 1) | 1 | -1.2 | -5.45 | 1.4 | inactive |
| KTN1 (kinectin 1) | 2 | -0.435 | -0.0966 | 5.32 | inactive |
| KTN1 (kinectin 1) | 3 | 3.71 | 29.1 | 17 | inactive |

A run of entries from the list above, as a working copy:
| Gene | reagent | G2 robust z-score | G2 cells, % of GMNN control | raw share of cells in G2 (%) | call |
| --- | --- | --- | --- | --- | --- |
| TRIM3 (tripartite motif containing 3) | 1 | -1.01 | -4.11 | 4.86 | inactive |
| TRIM3 (tripartite motif containing 3) | 2 | 1.53 | 13.7 | 8.28 | inactive |
| TRIM3 (tripartite motif containing 3) | 3 | -0.691 | -1.89 | 4.87 | inactive |
| WDR93 (WD repeat domain 93) | 1 | 6.77 | 50.6 | 24.3 | active |
| WDR93 (WD repeat domain 93) | 2 | -0.0812 | 2.4 | 5.6 | inactive |
| WDR93 (WD repeat domain 93) | 3 | 3.11 | 24.8 | 10.9 | inactive |
| HMGB2 (high mobility group box 2) | 1 | 1.14 | 11 | 10.5 | inactive |
| HMGB2 (high mobility group box 2) | 2 | 1.66 | 14.6 | 9.45 | inactive |
| HMGB2 (high mobility group box 2) | 3 | 2.03 | 17.3 | 10.3 | inactive |
| TBC1D26 (TBC1 domain family member 26) | 1 | 0.469 | 6.27 | 6.14 | inactive |
| TBC1D26 (TBC1 domain family member 26) | 2 | -0.0671 | 2.5 | 4.35 | inactive |
